PMC9097830
These are yes or no findings as the source states them, for the method shown. For some of these results: Binding seen in cells or lysates may run through a third protein. Some binding calls cover weakened binding; strength is not graded here. For some of these results: Tags and fused reporters may be left off the sequences shown. Each block holds one molecule with its values, some of them ahead of it.

Protein sequences, listed by entry. Tags and fused reporters are not part of them.
UniProt Q04206: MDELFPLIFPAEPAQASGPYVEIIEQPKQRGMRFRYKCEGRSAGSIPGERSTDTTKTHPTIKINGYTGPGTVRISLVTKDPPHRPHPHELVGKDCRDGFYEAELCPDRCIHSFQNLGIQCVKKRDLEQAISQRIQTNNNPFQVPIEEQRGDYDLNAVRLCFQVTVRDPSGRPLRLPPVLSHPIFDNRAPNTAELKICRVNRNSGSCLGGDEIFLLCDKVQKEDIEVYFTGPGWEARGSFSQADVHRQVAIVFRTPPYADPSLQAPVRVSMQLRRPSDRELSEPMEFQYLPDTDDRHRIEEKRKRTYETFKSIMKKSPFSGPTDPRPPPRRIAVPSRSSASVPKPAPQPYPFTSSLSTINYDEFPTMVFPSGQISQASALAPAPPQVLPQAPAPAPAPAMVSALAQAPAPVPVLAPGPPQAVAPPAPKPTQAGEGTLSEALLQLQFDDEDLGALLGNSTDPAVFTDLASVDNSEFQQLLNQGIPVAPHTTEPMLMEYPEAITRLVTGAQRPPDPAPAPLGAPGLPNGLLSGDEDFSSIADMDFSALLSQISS

How the values were obtained:
GST‐NAA10 (human) = target: T1, GST‐NAA10 (human) (UniProt P41227); assay: pull-down; 2 μg His‐RelA/p65 incubated with 2 μg GST‐NAA10 or GST plus glutathione beads in binding buffer at 4°C overnight; Western blot with anti‐His and anti‐GST; both purified
T1 sequence: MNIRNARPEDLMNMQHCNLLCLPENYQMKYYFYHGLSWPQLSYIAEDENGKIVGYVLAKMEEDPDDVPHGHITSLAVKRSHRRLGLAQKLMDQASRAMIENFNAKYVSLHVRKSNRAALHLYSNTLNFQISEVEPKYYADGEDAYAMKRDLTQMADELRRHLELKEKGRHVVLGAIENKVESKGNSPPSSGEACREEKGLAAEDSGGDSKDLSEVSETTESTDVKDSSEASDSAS

[1] = target: RelA/p65 subunit of NF‐κB (human (endogenous in CAL 27 and SCC-15)) (UniProt Q04206); assay: co-IP; cytoplasmic protein (500 µg) of fractionated CAL 27 and SCC‐15 cells immunoprecipitated with an anti‐p65 antibody; Western blot with anti‐NAA10 and anti‐RelA/p65
[2] = target: RelA/p65 subunit of NF‐κB (human (endogenous in CAL 27 and SCC-15)) (UniProt Q04206); assay: co-IP; CAL 27 and SCC‐15 lysates (1 mg total protein) with anti‐RelA/p65 antibody (2 μg) 16 h at 4°C, Protein A/G Sepharose beads, normal mouse IgG as negative control; Western blot with anti‐RelA/p65 and anti‐NAA10
His–p65 (human) = His–p65 (human) (UniProt Q04206); assay: co-IP; V5–NAA10 and His–p65 cotransfected in 293T cells; reciprocal immunoprecipitation and immunoblotting with the indicated antibodies

binding (GST‐NAA10 (human)): binds
Molecule: His‐RelA/p65 (from UniProt Q04206 1-551)

binding [1]: binds
binding [2]: binds
B1: N‐α‐Acetyltransferase 10 (protein, UniProt P41227 1-235)
chain: T1 sequence

binding (His–p65 (human)): binds
B2: V5–NAA10 (protein, UniProt P41227 1-235)
chain: T1 sequence
